Some entries share one result that the patent states for a list of compounds.
Test system: rats
Assay: Safety test, intravenous administration into rats
Details: dose of 150 mg/kg

| SMILES | Death following intravenous administration |
| --- | --- |
| C[N+](C)(C)CCOc1ccc(C(=O)[O-])cc1 [Compound 3, 4-(2-trimethylammonio-ethoxy)-benzoate] | None of the animals died |
| C[N+](C)(C)CCOc1cc(C(=O)O)ccc1O.[Cl-] [Compound 27, [2-(5-carboxy-2-hydroxy-phenoxy)-ethyl]-trimethylammonium Chloride] | None of the animals died |

From patent US7687546B2, “Quaternary ammonium compound, process for producing the same, therapeutic agent for cerebrovascular disorder, and therapeutic agent for heart disease” (Activus Pharma Co., Ltd., priority 2004, dated 2010)
